Results published in PMC5595435.
Results are given in words; binding and its absence hold for the method and conditions named. Binding seen in cells or lysates may run through a third protein. Here binding means that the protein was enriched with, or labelled near, the bait; the list need not be complete.

Protein sequences, listed by entry. Tags and fused reporters are not part of them.
UniProt P51114: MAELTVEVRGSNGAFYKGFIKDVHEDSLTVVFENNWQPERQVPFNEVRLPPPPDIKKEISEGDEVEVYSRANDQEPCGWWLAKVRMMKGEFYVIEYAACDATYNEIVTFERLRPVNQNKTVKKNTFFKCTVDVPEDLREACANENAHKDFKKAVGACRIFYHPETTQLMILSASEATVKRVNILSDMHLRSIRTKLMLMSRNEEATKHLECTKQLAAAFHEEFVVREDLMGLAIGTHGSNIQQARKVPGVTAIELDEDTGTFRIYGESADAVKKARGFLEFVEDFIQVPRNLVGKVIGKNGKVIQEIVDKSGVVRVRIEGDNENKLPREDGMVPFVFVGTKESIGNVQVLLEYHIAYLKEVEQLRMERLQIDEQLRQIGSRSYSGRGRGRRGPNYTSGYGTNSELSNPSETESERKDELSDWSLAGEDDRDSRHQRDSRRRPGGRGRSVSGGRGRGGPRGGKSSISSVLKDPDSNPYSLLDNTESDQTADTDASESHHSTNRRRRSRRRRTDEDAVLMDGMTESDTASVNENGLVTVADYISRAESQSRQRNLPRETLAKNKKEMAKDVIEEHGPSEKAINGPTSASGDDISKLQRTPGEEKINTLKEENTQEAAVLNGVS
UniProt Q9NYF8: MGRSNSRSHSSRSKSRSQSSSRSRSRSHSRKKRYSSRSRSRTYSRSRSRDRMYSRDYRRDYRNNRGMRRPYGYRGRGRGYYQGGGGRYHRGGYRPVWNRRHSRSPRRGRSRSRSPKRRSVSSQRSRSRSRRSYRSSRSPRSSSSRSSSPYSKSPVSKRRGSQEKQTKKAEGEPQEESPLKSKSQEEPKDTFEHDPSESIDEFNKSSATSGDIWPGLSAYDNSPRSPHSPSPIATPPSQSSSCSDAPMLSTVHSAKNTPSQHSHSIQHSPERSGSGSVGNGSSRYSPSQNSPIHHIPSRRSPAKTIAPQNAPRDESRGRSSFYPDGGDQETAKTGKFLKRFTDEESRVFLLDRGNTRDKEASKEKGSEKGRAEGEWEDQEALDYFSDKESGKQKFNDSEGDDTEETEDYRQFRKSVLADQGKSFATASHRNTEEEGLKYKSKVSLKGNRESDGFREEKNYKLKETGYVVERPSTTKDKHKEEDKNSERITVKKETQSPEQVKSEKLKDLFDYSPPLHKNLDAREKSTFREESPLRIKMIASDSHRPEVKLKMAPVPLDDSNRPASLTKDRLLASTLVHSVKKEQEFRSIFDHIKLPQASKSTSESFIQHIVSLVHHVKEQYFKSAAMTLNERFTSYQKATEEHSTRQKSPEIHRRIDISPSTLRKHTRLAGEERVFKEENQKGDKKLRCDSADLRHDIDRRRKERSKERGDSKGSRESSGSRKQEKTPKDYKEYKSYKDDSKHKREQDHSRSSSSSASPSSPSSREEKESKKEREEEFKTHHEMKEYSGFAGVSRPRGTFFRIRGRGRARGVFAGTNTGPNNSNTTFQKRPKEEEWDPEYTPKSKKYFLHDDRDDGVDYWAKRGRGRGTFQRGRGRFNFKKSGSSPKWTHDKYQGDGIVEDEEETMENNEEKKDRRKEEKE
UniProt Q08945: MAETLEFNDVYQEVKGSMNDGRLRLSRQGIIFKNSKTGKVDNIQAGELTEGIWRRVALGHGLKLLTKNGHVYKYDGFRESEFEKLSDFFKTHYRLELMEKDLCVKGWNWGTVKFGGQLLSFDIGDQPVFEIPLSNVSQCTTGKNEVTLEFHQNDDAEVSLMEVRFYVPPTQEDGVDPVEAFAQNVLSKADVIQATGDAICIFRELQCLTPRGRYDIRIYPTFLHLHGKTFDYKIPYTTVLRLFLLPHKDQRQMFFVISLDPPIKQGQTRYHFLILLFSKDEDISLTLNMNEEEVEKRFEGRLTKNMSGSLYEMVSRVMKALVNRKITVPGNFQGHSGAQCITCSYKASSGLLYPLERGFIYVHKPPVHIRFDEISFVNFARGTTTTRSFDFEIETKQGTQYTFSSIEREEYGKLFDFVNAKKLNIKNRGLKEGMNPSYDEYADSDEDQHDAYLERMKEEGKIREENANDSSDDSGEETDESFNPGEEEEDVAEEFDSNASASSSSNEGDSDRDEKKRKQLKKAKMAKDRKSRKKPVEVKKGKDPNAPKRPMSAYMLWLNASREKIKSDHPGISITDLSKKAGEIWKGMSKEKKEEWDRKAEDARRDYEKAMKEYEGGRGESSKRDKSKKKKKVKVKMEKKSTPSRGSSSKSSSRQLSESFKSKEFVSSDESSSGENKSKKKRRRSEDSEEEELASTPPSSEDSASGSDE
UniProt Q02880: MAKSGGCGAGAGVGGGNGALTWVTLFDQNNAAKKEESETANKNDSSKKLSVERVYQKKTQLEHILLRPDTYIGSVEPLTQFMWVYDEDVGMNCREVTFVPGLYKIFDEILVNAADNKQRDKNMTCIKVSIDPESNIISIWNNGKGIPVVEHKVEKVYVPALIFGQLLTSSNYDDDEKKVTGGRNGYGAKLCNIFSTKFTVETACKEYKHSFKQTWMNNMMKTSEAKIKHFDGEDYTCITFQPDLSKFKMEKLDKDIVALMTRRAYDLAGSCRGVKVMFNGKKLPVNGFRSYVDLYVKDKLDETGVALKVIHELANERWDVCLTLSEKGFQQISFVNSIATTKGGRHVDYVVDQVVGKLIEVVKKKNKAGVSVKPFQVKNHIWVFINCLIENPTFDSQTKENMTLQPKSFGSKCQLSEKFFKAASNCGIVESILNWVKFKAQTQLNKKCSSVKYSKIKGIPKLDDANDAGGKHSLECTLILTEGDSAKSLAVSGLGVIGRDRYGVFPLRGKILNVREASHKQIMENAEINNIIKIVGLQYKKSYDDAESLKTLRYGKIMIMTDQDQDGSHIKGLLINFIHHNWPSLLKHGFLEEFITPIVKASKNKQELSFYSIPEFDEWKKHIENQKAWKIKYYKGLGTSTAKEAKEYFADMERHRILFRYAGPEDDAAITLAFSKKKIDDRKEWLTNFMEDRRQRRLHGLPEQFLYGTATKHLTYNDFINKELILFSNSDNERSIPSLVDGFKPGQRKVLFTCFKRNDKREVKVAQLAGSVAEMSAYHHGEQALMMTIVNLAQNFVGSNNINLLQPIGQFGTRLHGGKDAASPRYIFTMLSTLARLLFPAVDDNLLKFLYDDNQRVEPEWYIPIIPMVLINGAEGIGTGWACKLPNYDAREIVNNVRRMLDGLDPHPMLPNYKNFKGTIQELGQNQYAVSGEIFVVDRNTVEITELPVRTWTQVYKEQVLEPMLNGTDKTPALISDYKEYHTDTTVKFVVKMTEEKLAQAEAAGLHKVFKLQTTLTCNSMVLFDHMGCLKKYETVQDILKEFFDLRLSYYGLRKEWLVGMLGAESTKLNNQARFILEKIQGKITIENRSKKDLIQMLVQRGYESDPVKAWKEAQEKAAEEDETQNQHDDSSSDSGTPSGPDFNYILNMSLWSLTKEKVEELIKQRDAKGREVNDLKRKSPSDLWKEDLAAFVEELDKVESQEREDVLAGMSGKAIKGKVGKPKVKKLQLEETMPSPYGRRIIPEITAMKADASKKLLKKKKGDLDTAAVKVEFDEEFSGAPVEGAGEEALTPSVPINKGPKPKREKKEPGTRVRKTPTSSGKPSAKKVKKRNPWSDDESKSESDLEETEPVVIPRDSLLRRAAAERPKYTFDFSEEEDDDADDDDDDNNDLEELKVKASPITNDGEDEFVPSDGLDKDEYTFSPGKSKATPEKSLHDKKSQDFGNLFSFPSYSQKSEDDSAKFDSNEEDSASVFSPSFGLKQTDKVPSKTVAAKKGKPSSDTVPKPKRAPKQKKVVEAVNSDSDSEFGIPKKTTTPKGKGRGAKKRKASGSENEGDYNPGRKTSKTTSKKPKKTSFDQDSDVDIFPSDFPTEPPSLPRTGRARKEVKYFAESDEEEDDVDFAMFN

Target: FXR1 (Fragile X-related Protein 1), endogenous (human (endogenous in H358 and KATOIII)) (UniProt P51114)
Experiment: affinity purification with mass spectrometry; ChIP-MS: formaldehyde cross-linked, micrococcal nuclease digested single-nucleosome lysate of H358 and KATOIII cells; anti-FXR1 antibody or IgG control, Protein G magnetic beads; SDS-PAGE, nanoLC-MS/MS

binding	Substance
binds	BTF (from UniProt Q9NYF8 1-920)
binds	FACT80 (from UniProt Q08945 1-709)
binds	TOP2B (from UniProt Q02880 1-1626) (enzyme)
